No constants are given. Whether binding was seen depends on the method and setting. Binding seen in cells or lysates may run through a third protein. For part of these data: Binding calls can cover weak binding; strength is not graded here. For part of these data: Sequences can lack the tags named with a protein.

Protein sequences, listed by entry. Tags and fused reporters are not part of them. Lines headed by an entry give the natural chain unless they say otherwise; changes in a name come on top.
UniProt Q9SGW5: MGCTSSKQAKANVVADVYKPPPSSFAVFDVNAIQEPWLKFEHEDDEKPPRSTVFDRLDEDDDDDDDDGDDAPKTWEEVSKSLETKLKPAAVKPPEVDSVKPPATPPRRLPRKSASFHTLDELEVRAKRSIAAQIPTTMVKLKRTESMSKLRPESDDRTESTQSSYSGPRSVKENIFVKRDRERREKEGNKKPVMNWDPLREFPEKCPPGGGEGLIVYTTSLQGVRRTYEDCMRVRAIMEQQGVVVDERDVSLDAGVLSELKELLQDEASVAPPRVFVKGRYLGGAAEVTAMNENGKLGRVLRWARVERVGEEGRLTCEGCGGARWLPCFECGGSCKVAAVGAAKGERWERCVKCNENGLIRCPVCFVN
UniProt P93025: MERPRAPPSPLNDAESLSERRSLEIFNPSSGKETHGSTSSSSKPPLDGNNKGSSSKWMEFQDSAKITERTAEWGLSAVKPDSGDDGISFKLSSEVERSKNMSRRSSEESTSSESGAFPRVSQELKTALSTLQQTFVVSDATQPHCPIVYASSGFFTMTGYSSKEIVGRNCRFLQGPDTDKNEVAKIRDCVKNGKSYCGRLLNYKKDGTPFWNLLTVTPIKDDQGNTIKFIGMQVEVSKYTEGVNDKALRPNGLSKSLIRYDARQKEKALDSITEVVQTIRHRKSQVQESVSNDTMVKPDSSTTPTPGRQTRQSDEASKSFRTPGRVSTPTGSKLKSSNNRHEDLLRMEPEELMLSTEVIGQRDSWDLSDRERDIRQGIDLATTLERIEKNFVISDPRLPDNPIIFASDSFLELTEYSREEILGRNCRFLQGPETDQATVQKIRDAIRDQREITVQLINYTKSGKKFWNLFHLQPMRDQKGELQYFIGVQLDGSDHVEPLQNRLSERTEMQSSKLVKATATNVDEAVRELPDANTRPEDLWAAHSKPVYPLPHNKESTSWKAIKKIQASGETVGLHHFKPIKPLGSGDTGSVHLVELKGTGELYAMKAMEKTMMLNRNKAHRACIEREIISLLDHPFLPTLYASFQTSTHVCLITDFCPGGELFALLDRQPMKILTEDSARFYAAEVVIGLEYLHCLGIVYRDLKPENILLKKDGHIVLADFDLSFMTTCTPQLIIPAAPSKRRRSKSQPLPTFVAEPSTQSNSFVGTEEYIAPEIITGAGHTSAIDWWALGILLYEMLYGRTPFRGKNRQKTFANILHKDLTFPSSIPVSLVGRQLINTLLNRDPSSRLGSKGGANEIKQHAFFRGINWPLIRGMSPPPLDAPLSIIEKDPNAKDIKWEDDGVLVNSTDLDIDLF

The labels stand for the following.
B1: 14-3-3 OMEGA with HA tag (OMEGA:HA) (protein, UniProt Q01525 1-259)
chain: MASGREEFVYMAKLAEQAERYEEMVEFMEKVSAAVDGDELTVEERNLLSVAYKNVIGARRASWRIISSIEQKEESRGNDDHVTAIREYRSKIETELSGICDGILKLLDSRLIPAAASGDSKVFYLKMKGDYHRYLAEFKTGQERKDAAEHTLAAYKSAQDIANAELAPTHPIRLGLALNFSVFYYEILNSPDRACNLAKQAFDEAIAELDTLGEESYKDSTLIMQLLRDNLTLWTSDMQDDAADEIKEAAAPKPTEEQQ
B2: 14-3-3 KAPPA with HA tag (KAPPA:HA) (protein, UniProt P48348 1-248)
chain: MATTLSRDQYVYMAKLAEQAERYEEMVQFMEQLVSGATPAGELTVEERNLLSVAYKNVIGSLRAAWRIVSSIEQKEESRKNEEHVSLVKDYRSKVETELSSICSGILRLLDSHLIPSATASESKVFYLKMKGDYHRYLAEFKSGDERKTAAEDTMIAYKAAQDVAVADLAPTHPIRLGLALNFSVFYYEILNSSEKACSMAKQAFEEAIAELDTLGEESYKDSTLIMQLLRDNLTLWTSDMQEQMDEA
B3: PMI1 co-expressed with THRUMIN1:YFP in N. benthamiana leaves (tag not stated) (protein, UniProt Q9C8E6 1-843)
chain: MAGEYSGSRSSNTQLLAELEALSENLYQKPQVSVGNRRTNSLALPRSSVPSLVTSADEVSTARAEDLTVSKPRARRLSLSPWRSRPKLEVEEEENVTQSNRIVKKPEESSSGSGVKEEKKGIWNWKPIRGLVRIGMQKLSCLLSVEVVAAQNLPASMNGLRLGVCVRKKETKDGAVQTMPCRVSQGSADFEETLFIKCHVYYSPANGKGSPAKFEARPFLFYLFAVDAKELEFGRHVVDLSELIQESVEKMNYEGARVRQWDMNWGLSGKAKGGELALKLGFQIMEKDGGAGIYSKQGEFGMKPSSKPKNFANSFGRKQSKTSFSVPSPKMTSRSEAWTPASGVESVSDFHGMEHLNLDEPEEKPEEKPVQKNDKPEQRAEDDQEEPDFEVVDKGVEFDDDLETEKSDGTIGERSVEMKEQHVNVDDPRHIMRLTELDSIAKQIKALESMMKDESDGGDGETESQRLDEEEQTVTKEFLQLLEDEETEKLKFYQHKMDISELRSGESVDDESENYLSDLGKGIGCVVQTRDGGYLVSMNPFDTVVMRKDTPKLVMQISKQIVVLPEAGPATGFELFHRMAGSGEELESKISSLMAIDELMGKTGEQVAFEGIASAIIQGRNKERANTSAARTVAAVKTMANAMSSGRRERIMTGIWNVEENPLTSAEEVLAVSLQKLEEMVVEGLKIQADMVDDEAPFEVSAAKGQKNPLESTIPLEEWQKEHRTQQKLTVLATVQLRDPTRRYEAVGGTVVVAVQAEEEEEKGLKVGSLHIGGVKKDAAEKRRLTAAQWLVEHGMGKKGKKKSNIKKKEKEEEEEEMLWSLSSRVMADMWLKSIRNPDVKLH
B4: KAC1 co-expressed with THRUMIN1:YFP in N. benthamiana leaves (tag not stated) (protein, UniProt Q9LX99 1-1273)
chain: MADQRSKTNRWNWEVSGFEPRKSSSNASFAESTGHRTTGPLLRRNSISTPSLPPKQAIASKVNGLKEKVKLAKEDYLELRQEATDLQEYSNAKLDRVTRYLGVLAEKSRKLDQFVLETEARISPLINEKKRLFNDLLTAKGNIKVFCRARPLFEDEGPSVIEFPGDCTICVNTSDDTLSNPKKDFEFDRVYGPHVGQAALFSDVQPFVQSALDGSNVSILSYGQTNAGKTYTMEGSNHDRGLYARCFEELFDLANSDSTSTSRFSFSLSVFEIYNEQIRDLLSETQSNLPNINMDLHESVIELGQEKVDNPLEFLGVLKSAFLNRGNYKSKFNVTHLIVSIHIYYSNTITGENIYSKLSLVDLAGSEGLIMENDSGDHVTDLLHVMNSISALGDVLSSLTSGKDSIPYDNSILTRVLADSLGGSSKTLMIVNICPSVQTLSETISCLNYAARARNTVPSLGNRDTIKKWRDVASDARKELLEKERENQNLKQEVVGLKKALKDANDQCVLLYSEVQRAWKVSFTLQSDLKSENIMLVDKHRLEKEQNSQLRNQIAQFLQLDQEQKLQMQQQDSAIQNLQAKITDLESQVSEAVRSDTTRTGDALQSQDIFSPIPKAVEGTTDSSSVTKKLEEELKKRDALIERLHEENEKLFDRLTERSMAVSTQVLSPSLRASPNIQPANVNRGEGYSAEAVALPSTPNKNNGAITLVKSGTDLVKTTPAGEYLTAALNDFDPEEYEGLAAIADGANKLLMLVLAAVIKAGASREHEILAEIRDSVFSFIRKMEPRRVMDTMLVSRVRILYIRSLLARSPELQTIRVSPVECFLEKPNTGRSKSTSRGSSPGRSPVRYLDTQIHGFKVNIKAERRNKLASVVSRMRGLEQDAGRQQVTGVKLREMQDEAKSFAIGNKALAALFVHTPAGELQRQIRLWLAENFEFLSVTSDDVSGGNGGQLELLSTAIMDGWMAGLGAAVPPHTDALGQLLSEYAKRVYTSQMQHMKDIAGTLAAEEAEDAGQVSKLRSALESVDHKRRKILQQMKSDAALLNLEEGSSPIPNPSTAAEDSRLASLISLDGILKQVKEITRQASVHVLSKSKKKALLESLDELTERMPSLLDIDHPCAQREIATAHQLVETIPEQEDTNILEQSHDRRPSLESISSGETDVSQWNVLQFNTGSSAPFIIKCGGNNNSELVIKADARVQEPKGGEIVRVVPRPSVLVNMSLEEMKQMFVQLPEALSLLALARTADGTRARYSRLYKTLAMKVPSLKDLVSELE
B5: 14-3-3 LAMBDA, expressed in N. benthamiana leaves (tag not stated) (protein, UniProt P48349 1-248)
chain: MAATLGRDQYVYMAKLAEQAERYEEMVQFMEQLVTGATPAEELTVEERNLLSVAYKNVIGSLRAAWRIVSSIEQKEESRKNDEHVSLVKDYRSKVESELSSVCSGILKLLDSHLIPSAGASESKVFYLKMKGDYHRYMAEFKSGDERKTAAEDTMLAYKAAQDIAAADMAPTHPIRLGLALNFSVFYYEILNSSDKACNMAKQAFEEAIAELDTLGEESYKDSTLIMQLLRDNLTLWTSDMQEQMDEA

The first test deals with THRUMIN1:YFP, transiently expressed in N. benthamiana leaves (Arabidopsis thaliana) (UniProt Q9SGW5). The test is described as follows: co-IP; N. benthamiana leaves transiently co-expressing the transgenes (35S promoter), 48 h postinfiltration, no crosslinking; YFP fusion held on GFP-Trap agarose; where noted leaves given 10 min high blue light (~50 umol m^-2 s^-1) or darkness before extraction.
For the molecule “Phototropin2 (Phot2), transiently expressed in N. benthamiana leaves (from UniProt P93025 1-915) (receptor)”, the binding result was “no binding”.

The next test shares this target. The test is described as above. The source holds these as a separate data set.
Consider B1, for which the binding entry is given as “binds”.

Take B2: the binding entry is given as “binds”.

As to B3, the binding entry was “no binding”.

On to B4, for which the binding result is reported as “no binding”.

Turning to B5, the binding result is “binds”.

The values are drawn from article PMC9237684.
